The values that follow come from publication PMC4122147.

Chains of the proteins cited; added tags and fusions are not shown. Residues count along the entry.
UniProt P35916, residues 25-1363: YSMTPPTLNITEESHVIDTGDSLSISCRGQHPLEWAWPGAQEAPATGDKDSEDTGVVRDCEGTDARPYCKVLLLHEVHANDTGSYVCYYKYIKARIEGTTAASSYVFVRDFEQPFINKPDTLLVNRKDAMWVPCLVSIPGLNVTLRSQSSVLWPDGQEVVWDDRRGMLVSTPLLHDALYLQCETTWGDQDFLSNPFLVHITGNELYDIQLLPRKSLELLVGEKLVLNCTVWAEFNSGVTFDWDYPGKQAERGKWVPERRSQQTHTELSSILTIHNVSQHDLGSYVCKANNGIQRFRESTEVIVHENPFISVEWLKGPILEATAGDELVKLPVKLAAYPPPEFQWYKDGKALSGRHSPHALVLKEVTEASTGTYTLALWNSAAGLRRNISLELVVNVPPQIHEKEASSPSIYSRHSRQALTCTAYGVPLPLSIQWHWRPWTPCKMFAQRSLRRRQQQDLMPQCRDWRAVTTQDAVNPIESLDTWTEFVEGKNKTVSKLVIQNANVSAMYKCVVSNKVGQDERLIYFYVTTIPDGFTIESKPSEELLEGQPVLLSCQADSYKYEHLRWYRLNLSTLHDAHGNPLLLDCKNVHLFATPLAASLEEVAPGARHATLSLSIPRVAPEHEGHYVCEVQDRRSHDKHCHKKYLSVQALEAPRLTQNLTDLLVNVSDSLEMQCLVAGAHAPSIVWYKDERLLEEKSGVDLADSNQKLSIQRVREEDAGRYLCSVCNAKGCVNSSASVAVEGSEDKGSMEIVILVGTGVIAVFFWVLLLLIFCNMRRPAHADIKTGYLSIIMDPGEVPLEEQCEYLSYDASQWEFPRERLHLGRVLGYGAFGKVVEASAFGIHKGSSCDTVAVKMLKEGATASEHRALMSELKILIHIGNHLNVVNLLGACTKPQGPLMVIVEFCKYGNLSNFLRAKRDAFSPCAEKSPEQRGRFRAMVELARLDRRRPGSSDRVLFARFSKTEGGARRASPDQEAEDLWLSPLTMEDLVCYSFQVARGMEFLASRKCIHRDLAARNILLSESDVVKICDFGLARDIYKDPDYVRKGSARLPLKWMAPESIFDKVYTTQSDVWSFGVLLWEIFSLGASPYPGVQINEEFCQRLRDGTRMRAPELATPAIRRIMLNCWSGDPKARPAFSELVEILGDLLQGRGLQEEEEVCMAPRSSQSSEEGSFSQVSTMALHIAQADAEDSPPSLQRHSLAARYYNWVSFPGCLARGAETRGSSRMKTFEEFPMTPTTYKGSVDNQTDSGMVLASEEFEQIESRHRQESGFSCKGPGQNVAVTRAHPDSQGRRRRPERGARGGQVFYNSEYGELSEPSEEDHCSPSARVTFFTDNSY
UniProt P35968, residues 20-1356: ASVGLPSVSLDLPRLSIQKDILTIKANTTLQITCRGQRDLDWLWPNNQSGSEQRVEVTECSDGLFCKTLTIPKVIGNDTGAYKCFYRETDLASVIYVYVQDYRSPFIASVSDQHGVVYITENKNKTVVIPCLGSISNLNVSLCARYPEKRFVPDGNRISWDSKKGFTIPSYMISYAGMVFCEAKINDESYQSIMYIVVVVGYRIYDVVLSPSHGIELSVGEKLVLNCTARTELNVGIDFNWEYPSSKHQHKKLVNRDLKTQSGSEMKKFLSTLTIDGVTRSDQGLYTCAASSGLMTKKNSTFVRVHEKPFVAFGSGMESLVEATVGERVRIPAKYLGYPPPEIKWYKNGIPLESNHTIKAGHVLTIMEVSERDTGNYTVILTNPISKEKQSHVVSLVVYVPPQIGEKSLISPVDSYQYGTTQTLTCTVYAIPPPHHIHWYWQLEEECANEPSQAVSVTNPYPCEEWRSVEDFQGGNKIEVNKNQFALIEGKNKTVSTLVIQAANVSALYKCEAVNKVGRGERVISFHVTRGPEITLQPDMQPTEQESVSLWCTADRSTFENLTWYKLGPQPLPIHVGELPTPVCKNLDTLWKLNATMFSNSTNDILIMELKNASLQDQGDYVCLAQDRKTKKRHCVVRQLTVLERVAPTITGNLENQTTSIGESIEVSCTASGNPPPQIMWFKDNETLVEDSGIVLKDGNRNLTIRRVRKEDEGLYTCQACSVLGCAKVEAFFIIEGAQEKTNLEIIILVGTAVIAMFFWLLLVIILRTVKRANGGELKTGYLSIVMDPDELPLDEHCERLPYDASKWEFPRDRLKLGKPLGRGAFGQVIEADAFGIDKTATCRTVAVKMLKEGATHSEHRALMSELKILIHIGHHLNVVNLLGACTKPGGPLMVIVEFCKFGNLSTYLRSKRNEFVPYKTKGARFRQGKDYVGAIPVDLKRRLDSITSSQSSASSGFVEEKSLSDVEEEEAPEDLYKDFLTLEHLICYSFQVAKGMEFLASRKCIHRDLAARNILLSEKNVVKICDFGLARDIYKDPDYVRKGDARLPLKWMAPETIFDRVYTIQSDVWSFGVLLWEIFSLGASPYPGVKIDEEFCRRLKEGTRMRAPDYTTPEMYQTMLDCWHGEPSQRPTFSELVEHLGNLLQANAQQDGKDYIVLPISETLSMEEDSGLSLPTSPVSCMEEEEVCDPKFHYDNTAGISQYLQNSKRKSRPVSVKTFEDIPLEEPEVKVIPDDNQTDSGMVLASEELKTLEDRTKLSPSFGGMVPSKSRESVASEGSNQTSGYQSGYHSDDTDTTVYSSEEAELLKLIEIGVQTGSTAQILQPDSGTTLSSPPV

For this assay, the target named is VEGF receptor 3 (human (endogenous in L-LECs)) (UniProt P35916). Kind of assay: co-IP; VEGFR-3 immunoprecipitated from RIPA lysates of L-LECs, with and without Slit2N incubation; Western blot for VEGFR-2 and alpha 5 integrin. On the technique in general: Immunoblotting shows a protein as a band on a membrane.

Results are given in words; binding and its absence hold for the method and conditions named. Binding seen in cells or lysates may run through a third protein. Some entries that bind do so weakly or less than the wild type.

For “VEGF receptor 2 (from UniProt P35968 20-1356)”, the binding entry is recorded as “binds weakly”.
